Library screen at single concentrations

The chains behind the UniProt entries cited, without tags or fusion partners.
UniProt I6X8D2, whole entry: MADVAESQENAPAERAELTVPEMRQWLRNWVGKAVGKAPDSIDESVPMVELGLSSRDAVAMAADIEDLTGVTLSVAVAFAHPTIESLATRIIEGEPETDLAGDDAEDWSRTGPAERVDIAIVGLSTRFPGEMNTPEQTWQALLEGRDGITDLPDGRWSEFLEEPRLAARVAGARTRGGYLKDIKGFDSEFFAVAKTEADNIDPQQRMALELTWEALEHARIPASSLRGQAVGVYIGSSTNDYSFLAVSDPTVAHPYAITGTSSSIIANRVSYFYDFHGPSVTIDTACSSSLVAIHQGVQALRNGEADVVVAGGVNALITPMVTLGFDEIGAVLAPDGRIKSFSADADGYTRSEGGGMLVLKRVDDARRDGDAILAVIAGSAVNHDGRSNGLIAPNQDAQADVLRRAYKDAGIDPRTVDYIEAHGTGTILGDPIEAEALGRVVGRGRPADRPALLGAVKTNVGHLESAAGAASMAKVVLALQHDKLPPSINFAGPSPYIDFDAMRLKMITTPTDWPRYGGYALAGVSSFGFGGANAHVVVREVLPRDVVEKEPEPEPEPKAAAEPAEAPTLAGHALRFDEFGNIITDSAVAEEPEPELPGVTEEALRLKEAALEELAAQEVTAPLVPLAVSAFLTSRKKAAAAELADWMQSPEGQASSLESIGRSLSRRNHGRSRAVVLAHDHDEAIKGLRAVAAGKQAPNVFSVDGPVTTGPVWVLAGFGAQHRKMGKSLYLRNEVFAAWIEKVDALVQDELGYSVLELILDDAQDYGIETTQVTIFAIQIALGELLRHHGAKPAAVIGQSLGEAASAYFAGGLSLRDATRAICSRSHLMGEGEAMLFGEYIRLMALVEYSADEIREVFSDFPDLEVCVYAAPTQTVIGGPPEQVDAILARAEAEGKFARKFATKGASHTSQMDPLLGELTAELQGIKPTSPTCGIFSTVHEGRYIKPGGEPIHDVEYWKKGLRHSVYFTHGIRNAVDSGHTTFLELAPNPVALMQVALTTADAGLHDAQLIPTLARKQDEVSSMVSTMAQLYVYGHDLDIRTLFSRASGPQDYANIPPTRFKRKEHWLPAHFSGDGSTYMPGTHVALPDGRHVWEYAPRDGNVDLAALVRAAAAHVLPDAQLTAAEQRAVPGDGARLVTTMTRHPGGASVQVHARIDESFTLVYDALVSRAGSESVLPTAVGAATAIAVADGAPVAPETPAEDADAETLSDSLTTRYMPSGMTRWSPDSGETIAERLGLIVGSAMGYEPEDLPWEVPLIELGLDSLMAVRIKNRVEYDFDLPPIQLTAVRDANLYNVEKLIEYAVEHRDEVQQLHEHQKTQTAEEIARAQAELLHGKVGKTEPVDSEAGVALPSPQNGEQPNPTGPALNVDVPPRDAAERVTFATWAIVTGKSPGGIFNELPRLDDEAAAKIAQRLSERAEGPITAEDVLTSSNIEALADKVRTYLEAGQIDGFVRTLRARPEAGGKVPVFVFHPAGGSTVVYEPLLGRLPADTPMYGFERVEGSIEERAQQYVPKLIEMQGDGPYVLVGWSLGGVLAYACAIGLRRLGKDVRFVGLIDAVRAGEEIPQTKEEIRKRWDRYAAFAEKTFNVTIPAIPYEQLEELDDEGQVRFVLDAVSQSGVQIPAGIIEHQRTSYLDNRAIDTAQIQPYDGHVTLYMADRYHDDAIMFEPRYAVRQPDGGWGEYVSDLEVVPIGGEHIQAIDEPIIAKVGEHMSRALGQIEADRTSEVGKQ

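Enzyme assay of the thioesterase domain of polyketide synthase 13; the read-out is not stated. Target: Polyketide synthase Pks13, Mycobacterium tuberculosis (UniProt I6X8D2). Concentration: 30 µM. Higher reads as stronger inhibition (inferred from which compounds were picked for retests). Size under these conditions: about 67,000 compounds, about 300 of them at 50% or above in at least one test.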

The filed quantity is “Percent Effect” (%).
The controls that fix the scale are not given in the record; negative values are as filed.
Compounds were drawn at random from those tested, without regard to their results.

| # | SMILES | percent effect |
|---|---|---|
| 1 | `COc1ncccc1C(=O)N1CCC(CNC(C)=O)CC1` | -9.097% |
| 2 | `CCOCCN1CCN([C@@H]2c3ccccc3C3(CCNCC3)[C@H]2O)CC1` | 82.62% |
| 3 | `CC(C)CN1CCCn2nc(CNC(=O)c3cccnc3O)cc2C1` | -22.54% |
| 4 | `CCCS(=O)(=O)NCC(O)c1c(Cl)cccc1Cl` (stereo not drawn) | -7.711% |
| 5 | `CC(=O)N1Cc2cnc(C(C)(C)C)nc2C1` | -16.52% |
| 6 | `O=C(c1ccco1)N1CC[C@@H]2[C@H]1CCC(=O)N2c1ccccc1` | -7.218% |
| 7 | `COc1cccc(NC(=O)NCC(C)(O)CCSC)c1OC` (stereo not drawn) | -33.52% |
| 8 | `CC(C(=O)NC1CCCC1)S(=O)(=O)Cc1noc(C(C)(C)C)n1` (stereo not drawn) | -0.3584% |
| 9 | `COc1ccc2[nH]cc(C(=O)N3CC[C@H](CO)[C@@H](O)C3)c(=O)c2c1` | -1.488% |
| 10 | `COCC1CN(S(C)(=O)=O)Cc2ncn(CC3CC3)c21` (stereo not drawn) | -4.817% |
| 11 | `Cc1ccc(C(C(=O)NCCN2CCC(CO)CC2)N(C)C)cc1` (stereo not drawn) | -9.238% |
| 12 | `NC(=O)NC(=O)CCN1CCCC1c1cccc2c1OCCO2` (stereo not drawn) | -5.116% |
| 13 | `Cc1cnn(C2CCCN(C(=O)CCCc3ccccn3)C2)c1` (stereo not drawn) | -4.368% |
| 14 | `O=C(Nc1cnccn1)[C@@H]1C[C@H]2OCC[C@H]2N(Cc2ccsc2)C1` | -10.52% |
| 15 | `Cc1ccc(CN2CCC3(CCN(c4cnn(C)c4)C3=O)C2)s1` (stereo not drawn) | 1.968% |
| 16 | `O=C(OCC1CCN(c2ccccc2)C1)c1cscn1` (stereo not drawn) | 62.87% |
| 17 | `O=S(=O)(C1CC1)N1CCC2(COCc3cnc(-c4cccnc4)nc32)C1` (stereo not drawn) | -6.283% |
| 18 | `COc1ccc(-c2n[nH]cc2CN(C)Cc2ccoc2)c(F)c1` | -15.17% |
| 19 | `CCSc1nsc(NC(=O)COc2ccc3c(c2)OCO3)n1` | -7.729% |
| 20 | `CC(C)c1nc(C2CCCN2Cc2nnc(C3CCC3)o2)no1` (stereo not drawn) | -28.47% |
| 21 | `CCOc1ccc(Br)cc1-c1cc(N)[nH]n1` | -12.39% |
| 22 | `OCCc1cn(CC2CCCN(Cc3nccs3)C2)nn1` (stereo not drawn) | -16.05% |
| 23 | `Cc1cc(C(C)NC(=O)c2c[nH]c(=O)c(Cl)c2)c(C)o1` (stereo not drawn) | -16.06% |
| 24 | `COCC(O)CNC(=O)c1coc(COc2ccc3sc(C)nc3c2)n1` (stereo not drawn) | 1.02% |
| 25 | `Cc1ccc(-c2nc(CN(Cc3cccs3)C3CCS(=O)(=O)C3)cs2)o1` (stereo not drawn) | 17.35% |
| 26 | `Cc1cc2c(cc1Cl)C=CC1(CCN(CC(=O)N3CCCC3)CC1)O2` | -0.1165% |
| 27 | `COCC1CN(Cc2ccc(F)cc2)Cc2nnn(CC3CC3)c21` (stereo not drawn) | 5.652% |
| 28 | `CCOc1cc(NC(=O)C2CC(=O)N(c3cccc(OC)c3)C2)ncn1` (stereo not drawn) | -38.24% |
| 29 | `COc1cccc(CNCc2ccc(NC(=O)NC(C)C)cc2)c1` | -8.05% |
| 30 | `CC[C@@H]1N(Cc2ccc(OC)cc2)CCC[C@]12CCC(=O)N2CCOC` | -36.13% |
| 31 | `OCC1(O)CCCN(Cc2ccc(-c3cc[nH]n3)s2)CC1` (stereo not drawn) | -19.41% |
| 32 | `CCN1CCCC(CNC(=O)CCc2ccc(OC)c(F)c2)C1` (stereo not drawn) | -2.129% |
| 33 | `CCC(=O)CNC(=O)CCn1nc2ccccn2c1=O` | 6.423% |
| 34 | `Cc1ccccc1CCNC(=O)CN1CCCC(Cn2cncn2)C1` (stereo not drawn) | -7.403% |
| 35 | `CN(CCOc1ccccc1)C(=O)Nc1cccn(C)c1=O` | -1.687% |
| 36 | `CCCNC(=O)CCNC1CSCCc2ccccc21` (stereo not drawn) | -32.87% |
| 37 | `COC(=O)c1ccc(N2CCC(N(C)c3ccccc3)CC2)nn1` | 4.661% |
| 38 | `CS(=O)(=O)NC1CCN(c2cccc(F)c2C#N)CC1` | 10.11% |
| 39 | `CS(=O)(=O)NCCCN1CCCC1c1cccc(Br)c1` (stereo not drawn) | -11.15% |
| 40 | `O=C1CC2(CCN(CC3CCOC3)CC2)CN1Cc1cc(F)cc(F)c1` (stereo not drawn) | -7.377% |
| 41 | `CCCC(C)C(=O)Nc1ccc(OC)nc1N1CCN(C(C)=O)CC1` (stereo not drawn) | -6.969% |
| 42 | `Cc1cc(C(=O)N2CCC(Nc3cccnc3)CC2)c(C)s1` | -5.414% |
| 43 | `Cc1cc(=O)[nH]c(-n2nc(C)c(CCC(=O)NCc3cccs3)c2C)n1` | -0.8368% |
| 44 | `COc1ccc(C(CNC(=O)c2c(C)noc2C)N(C)C)cc1` (stereo not drawn) | -27.99% |
| 45 | `Cc1cccc(OC2CCN(C(=O)CNC(=O)N(C)C)CC2)c1` | 42.93% |
| 46 | `CC(C)[C@H]1CN(CCCO)C[C@@H]1NC(=O)CCS(C)(=O)=O` | -7.778% |
| 47 | `Cc1ccc(CN(C)C(=O)CCNS(=O)(=O)c2cccnc2)cc1` | 6.492% |
| 48 | `Cc1cccc(CN2C(=O)CO[C@@H]3CN(Cc4nccn4C)C[C@H]32)c1` | -25.89% |
| 49 | `Cc1ccc(CCCC(=O)N2CCN(C3CCCN(C)C3)CC2)s1` (stereo not drawn) | -4.525% |
| 50 | `Cc1nc(NCCSc2cnn[nH]2)c2c(C)noc2n1` | -93.44% |
| 51 | `CCn1nccc1CNC(=O)C1CC1` | -21.13% |
| 52 | `O=C(CN1CCCC1)N1CCCC(c2cc(=O)n3c(n2)CCCCC3)C1` (stereo not drawn) | -1.828% |
| 53 | `Cc1nn(CC(=O)O)c(C)c1NS(=O)(=O)c1cccc2ccccc12` | 1.251% |
| 54 | `COCCC(=O)N1CCC(NC(=O)c2cscc2C)CC1` | 3.955% |
| 55 | `CCN(CC1CCCO1)C(=O)CSCC(=O)Nc1ccc(C)cc1` (stereo not drawn) | -14.66% |
| 56 | `Cn1cc(CC(CNC(=O)Nc2cccc(Cl)c2)C(N)=O)cn1` (stereo not drawn) | -30.83% |
| 57 | `CCn1ncc2c1C(COCC1CC1)CN(c1ccncn1)C2` (stereo not drawn) | -3.316% |
| 58 | `O=C(Cc1n[nH]c2ccccc12)N1CCCCC1Cn1cccn1` (stereo not drawn) | -10.35% |
| 59 | `O=S1(=O)CCC(NCCn2cncc2-c2ccc3c(c2)CCCO3)C1` (stereo not drawn) | -8.721% |
| 60 | `CC(C)c1nnc(C2CCN(CC(=O)Nc3cccnc3)CC2)o1` | -9.589% |
| 61 | `CC(C)CN1CCC2(CCN(Cc3ccc(F)cc3)CC2)C1=O` | -23.34% |
| 62 | `O=C(CCOc1ccc(Br)cc1)N1CCN(c2cnccn2)CC1` | 5.72% |
| 63 | `COC(=O)[C@H]1C[C@@H](O)CCN1S(=O)(=O)c1cc(C)c(Cl)cc1C` | 0.7391% |
| 64 | `CC(NC(=O)c1ccc(C#N)cn1)C1(N2CCOCC2)CCCC1` (stereo not drawn) | -28.03% |
| 65 | `c1ccc(CN2CCN(C3CCOC4(CCOCC4)C3)CC2)nc1` (stereo not drawn) | -7.564% |
| 66 | `COCC(=O)N1CCCC(C(=O)N(C)CCn2ccnc2C)C1` (stereo not drawn) | -0.6114% |
| 67 | `CCc1nccn1CC1CCCN1S(=O)(=O)Cc1ccccc1` (stereo not drawn) | -17.6% |
| 68 | `CCn1nnc2c1C(COCCN(C)C)CN(c1nncs1)C2` (stereo not drawn) | 2.652% |
| 69 | `C=C(C)CN1CCN(Cc2cnc(-c3ccccc3C)nc2)CC1` | -24.98% |
| 70 | `N#Cc1ccccc1N1CCCN(C(=O)CCn2cccn2)CC1` | -28.74% |
| 71 | `C[C@H]1C[C@@H]2CCN(CC3CCOCC3)C[C@H]2O1` | -37.68% |
| 72 | `CC(C)NC(=O)c1ccc2c(c1)C1(CCN(C)CC1)C(=O)N2` | -11.63% |
| 73 | `CC1=C(C(N)=O)C(c2cn(C)nc2C)N2C(=O)CSC2=N1` (stereo not drawn) | -21.73% |
| 74 | `Cc1ccc2c(c1)N(C(=O)c1cc[nH]c(=O)c1)CC(C)O2` (stereo not drawn) | -1.481% |
| 75 | `CC(C)(C)c1oc(C(N)=O)cc1CN1CCCCC1CN1CCOCC1` (stereo not drawn) | -13.26% |
| 76 | `COc1ccsc1C(=O)N1CCCN(Cc2cscn2)CC1` | -23.16% |
| 77 | `CC(c1cccc(-c2nccn2CCc2cn[nH]c2)c1)N(C)C` (stereo not drawn) | -3.848% |
| 78 | `CN(C)C(=O)C1CN(Cc2ccsc2)CCN(S(C)(=O)=O)C1` (stereo not drawn) | 0.2792% |
| 79 | `COC(=O)C(O)C1CCN(CCc2ccncc2)CC1` (stereo not drawn) | 0% |
| 80 | `CCn1cc(C(=O)N2CCOC(c3nc(-c4cccs4)no3)C2)cn1` (stereo not drawn) | -0.6289% |
| 81 | `COc1ccc(-c2csc3c2c(N)nc(=O)n3CCN(C)C)cc1` | -22.8% |
| 82 | `Cn1ccnc1CN1CCCN(C(=O)CC(C2CC2)C2CC2)CC1` | -9.663% |
| 83 | `CC(C)Cn1cnnc1C1CCCN1C(=O)c1cc2ccccn2c1` (stereo not drawn) | 0.9493% |
| 84 | `Cc1cc(C2CCCN2CCCS(=O)(=O)c2ccccc2)no1` (stereo not drawn) | -2.427% |
| 85 | `Cc1nc(C)n(CC2CN(CCCOc3ccc(F)cc3)CCO2)n1` (stereo not drawn) | -14.16% |

The last 6 entries again:

SMILES	percent effect
CCn1cc(C(=O)N2CCOC(c3nc(-c4cccs4)no3)C2)cn1 (stereo not drawn)	-0.6289%
COc1ccc(-c2csc3c2c(N)nc(=O)n3CCN(C)C)cc1	-22.8%
Cn1ccnc1CN1CCCN(C(=O)CC(C2CC2)C2CC2)CC1	-9.663%
CC(C)Cn1cnnc1C1CCCN1C(=O)c1cc2ccccn2c1 (stereo not drawn)	0.9493%
Cc1cc(C2CCCN2CCCS(=O)(=O)c2ccccc2)no1 (stereo not drawn)	-2.427%
Cc1nc(C)n(CC2CN(CCCOc3ccc(F)cc3)CCO2)n1 (stereo not drawn)	-14.16%

The values are deposited in ChEMBL (CHEMBL3988442, “University of Dundee, Small-Polar-MMV Screening Library” (2021)).